Assay results: PubChem BioAssay AID2685 (National Center for Advancing Translational Sciences (NCATS), 2010)
Hit rate of the full screen: of about 320,000 compounds, about 2,100 (0.66%) were called active. Inconclusive results, whose numbers are uncertain, are shown with a selection of clear calls. The call rests on the fitted dose curve; in most records, active means well fitted inhibition curve with a large enough effect in the signal ratio, with a control signal flat (not every such curve was filed as active); inconclusive means small, poorly fitted or top-dose-only effect, or effect the other way, or a change in a side signal; inactive means flat fitted curve, though single readings scatter; the % refers to the signal ratio. Potencies of inconclusive entries are doubtful fits and often do not repeat.

Test: qHTS Assay for Lipid Storage Modulators in Drosophila S3 Cells
Settings: BODIPY lipid droplet fluorescence, 18-24 h, cells fed with added oleic acid; lipid storage change, negative = inhibition: at 46.1 µM (top of the series) unless noted
In short: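 Drosophila S3 cells loaded with oleic acid (400 uM, as added) and compounds at several concentrations; lipid droplets imaged by 488-nm laser-scanning cytometry, 500–530 nm intensity and object ratio to cell channel. Percent activity normalized to 20 uM Triacsin C.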
On the % scale 0 is the no-effect control and ±100 the full control effect; potency means the concentration at half of the fitted maximal effect.

SMILES | lipid storage change, negative = inhibition | Potency
COc1ccc(NC(=O)Cn2nnc(C(=O)NCCc3ccc(OC)c(OC)c3)c2N)c(OC)c1 | inconclusive: 20.2% | –
CCn1nc(NS(=O)(=O)c2ccccc2)c2cc3ccc(C)cc3nc21 | – | inconclusive: 29.1 µM [activator, single point]
N#CC(c1ccccc1)N(CCCCl)C(=O)c1ccc(Br)cc1 (stereo unspecified) | inconclusive: 12.6% | –
CCc1ccccc1Nc1nn2c(=O)c3ccc(C(=O)NCc4cccs4)cc3nc2s1 | inactive | –
CCOC(=O)CCC(=O)N1CCNC(=O)C1 | inconclusive: -3.06% | –
Cc1sc2ncnc(SCC(=O)c3ccc(Cl)s3)c2c1C | inconclusive: 148% | –
OCC[C@@H]1C[C@H](O)[C@@H](O)[C@]2(CCc3ccccc3CO2)O1 | inconclusive: -5.49% | –
COc1ccc(Cn2nnnc2C(c2cc3ccc(OC)cc3[nH]c2=O)N2CCCCCC2)cc1 (stereo unspecified) | inconclusive: 17.9% | –
COC(=O)Nc1csc2c1NC(=O)CCCC2 | inconclusive: 36.3% | –
CC(=O)Nc1c(C(=O)c2ccccc2)oc2ccccc12 | inconclusive: -31% | –
CS(=O)(=O)N1CCN=C1SCc1ccc(Br)cc1 | inconclusive: 187% | –
Cc1nnsc1-c1onc(C)c1C(=O)O/N=C/c1ccc(Cl)cc1 | inconclusive: -0.75% | –
O=C(CN1C(=O)c2ccccc2C1=O)NN1C(=O)c2ccccc2C1=O | inconclusive: 3.13% | –
CCCSc1nc(N2CCCC2)c2c(c1C#N)CC(C)(C)OC2 | inconclusive: 2.51% | –
O=C(CSc1cccc[n+]1[O-])Nc1cc(S(=O)(=O)N2CCOCC2)ccc1Cl | inconclusive: -8.41% | –
CC(C)(C)OC(=O)[C@H](Cc1ccccc1)NC(=O)c1nc[nH]c1C(=O)N1CCN(c2ccccc2)CC1 | inconclusive: -82.4% | –
COc1ccc(-n2nc3ccccc3n2)cc1 | inconclusive: 42.2% | –
COc1ccc(C(=O)NNC(=O)c2cc3cccc(OC)c3oc2=O)cc1 | inconclusive: 37.8% | –
O=C(NCC(c1cccs1)N1CCOCC1)C1CCN(S(=O)(=O)c2c(Cl)cccc2Cl)CC1 (stereo unspecified) | inconclusive: 19.2% | –
O=C(NCc1ccccn1)Nc1ccc(Cl)cc1Cl | inconclusive: -14.5% | –
Cc1ccc(-c2nc(C)sc2CC(=O)Nc2cccc(C)c2C)cc1 | inactive | –

SMILES | lipid storage change, negative = inhibition | Potency
C=CCOC(=O)CCCCCCCC | inconclusive: 15.5% | –
CC(C)COC(=O)N1CC(O)CC1C(=O)O (stereo unspecified) | inconclusive: -41% | –
O=C1NCCN1CCN1C(=O)c2ccccc2NC1c1ccccc1 (stereo unspecified) | inconclusive: 0.0857% | –
Cc1cc2cc(C)c(NCCNC(=O)c3cccs3)nc2cc1C | inconclusive: -23.8% | –
Cc1cc(NC(=O)CSc2nc3cc(C)c(C)cc3cc2C)no1 | – | inconclusive: 29.1 µM [activator, single point]
Cc1ccc(C(C(=O)NCc2ccc(F)cc2)N(CCCO)C(=O)C2COc3ccccc3O2)o1 (stereo unspecified) | inconclusive: -8.49% | –
Cc1cccc(C)c1NC(=O)COC(=O)CNC(=O)C1CCCCC1 | inconclusive: -17.3% | –
CC(C)CN(C(=O)Cn1c(C(F)(F)F)nc2ccccc21)C1CCS(=O)(=O)C1 (stereo unspecified) | inconclusive: 5.75% | –
CC(=O)Nc1ccc(Nc2nc(C)nc3c2oc2ccccc23)cc1 | – | inconclusive: 13 µM [activator, partial curve, poor fit]
CCOc1ccc(S(=O)(=O)/N=C(/Nc2ccc(OC)cc2)c2ccccc2)cc1 | – | inconclusive: 14.6 µM [activator, partial curve]
CCOC(=O)CCC(=O)Nc1ccc(S(=O)(=O)N2CCCC2)cc1 | inconclusive: -37.9% | –
CCOc1ccc(NC(=O)CCC(=O)NNC(=O)c2ccc(Br)o2)cc1 | – | active: 6.51 µM
N#Cc1cc2c(nc1Cl)CCC2 | inactive | –
CCC1(c2ccccc2)NC(=S)N(c2cccc(C)c2C)N1 (stereo unspecified) | inconclusive: 14.8% | –
Cc1ccc(C(=O)OCc2nnc(-c3ccccc3)o2)o1 | – | inconclusive: 0.411 µM [activator, full curve, poor fit]
COc1ccc(-n2c(O)c(/C=C3\C=Nc4ccccc43)c(=O)[nH]c2=O)cc1 | inconclusive: -34.6% | –
Cc1ccc(NC(=O)c2ccccc2NC(=O)c2cccnc2)cc1 | – | inconclusive: 20.6 µM [falling, single point]
Cc1cc(C)cc(N(CC(=O)N2CCN(c3ccccc3)CC2)S(=O)(=O)c2c(C)noc2C)c1 | inconclusive: 10.8% [at 9.22 µM] | –
Cc1ccc(C(=O)C(C)OC(=O)CNS(=O)(=O)c2ccc(C)cc2)cc1 (stereo unspecified) | inconclusive: 8.12% | –
O=C(Cc1cc(=O)oc2cc(O)ccc12)NCC1CCC(C(=O)O)CC1 (stereo unspecified) | inconclusive: -40.2% | –
CCOC(=O)c1ccc(NC(=S)Nc2cc(C)cc(C)n2)cc1 | inconclusive: -9.95% | –

SMILES | lipid storage change, negative = inhibition | Potency
COC(=O)CCCCNC(=O)Nc1ccccc1 | inconclusive: -21.3% | –
CC(C)(CC(=O)O)CC(=O)Nc1ccccc1Oc1ccccc1 | inconclusive: 4.63% | –
O=[N+]([O-])c1cccc(S(=O)(=O)Nc2cccc(-c3ccc(N4CCOCC4)nn3)c2)c1 | inconclusive: 48.1% | –
OC[C@@H](O)[C@@H](O)[C@H](O)[C@H](O)CO | inconclusive: -14.9% | –
C/C(=N\NC(=O)C1(C)CC1(Br)Br)c1ccc(NC(=O)C2CCC2)cc1 (stereo unspecified) | inconclusive: -20.3% | –
Nc1c(C(=O)c2cccs2)oc2ccccc12 | – | inconclusive: 0.0046 µM [activator, full curve, poor fit]
CN(C)/C=C(\C#N)C(=O)c1cccnc1Oc1ccc(F)cc1F | inconclusive: 28.7% | –
COc1ccc(C2/C=C\CN(C(=O)Oc3ccc(C(F)(F)F)cc3)CC(=O)N2Cc2ccc(F)cc2)cc1 (stereo unspecified) | inconclusive: 6.24% | –
COCCNc1ncnc2c1cnn2-c1ccc(Cl)cc1 | inconclusive: 3.31% | –
Cn1c(=O)[nH]c(=O)c2c1nc(N1CCCCCC1)n2Cc1cccc2ccccc12 | inconclusive: -47% | –
Cc1cccc(NC(=O)COC(=O)c2ccccn2)c1 | – | inconclusive: 6.51 µM [activator, single point]
CCN(C(=O)CSc1ncn[nH]1)C1CCCCC1 | inconclusive: 0.115% | –
O=C(Nc1cccc2ccccc12)N1CC=CCC1 | inconclusive: 6.92% | –
CCc1ccc(S(=O)(=O)NCC2(N3CCOCC3)CCCCC2)cc1 | inconclusive: 8.65% | –
COc1ccc(C(=O)N[C@H](C(=O)Nc2nc3c(s2)CCCC3)C(C)C)cc1 | inconclusive: 14% | –
CC(C)CC(NC(=O)c1cccs1)c1nnc(SCc2ccc(Cl)c(Cl)c2)n1C (stereo unspecified) | inconclusive: -13.5% | –
Cn1c(C(=O)NCc2cccs2)cc2c(=O)n(C)c3ccccc3c21 | – | inconclusive: 20.6 µM [activator, single point]
Nc1c(S(=O)(=O)c2cccs2)c2nc3ccccc3nc2n1Cc1cccs1 | inconclusive: 0.101% | –
CCN(CC)CCN1C(=O)C(=O)/C(=C(/O)c2ccc(S(=O)(=O)N3CCOCC3)cc2)C1c1ccccc1 (stereo unspecified) | – | inconclusive: 0.146 µM [activator, full curve]
CC(Oc1ccc(Cl)cc1)C(=O)N(C)CC(=O)Nc1ccc(N2CCOCC2)cc1 (stereo unspecified) | inconclusive: 30.4% | –
O=C(Nc1ccc(OC(F)(F)F)cc1)c1cnccn1 | – | inconclusive: 2.06 µM [activator, partial curve]

SMILES | lipid storage change, negative = inhibition | Potency
O=C(Cn1c(=O)[nH]c2ccsc2c1=O)N1CCN(c2ccc(F)cc2)CC1 | inconclusive: 2.23% | –
Cc1cccc(N(C(=O)c2snc(C(N)=O)c2N)C(C(=O)NCC2CCCO2)c2ccc(N(C)C)cc2)c1C (stereo unspecified) | inconclusive: 28.3% | –
COCCOc1cc(Nc2nnc(C(F)(F)F)s2)c(Cl)cc1Cl | inconclusive: 325% | –
COc1ccccc1-n1cc(-c2ccc(C)cc2)[nH]c1=S | inconclusive: 13.3% | –
COc1ccc(C(=O)CC(=O)Nc2ccc([N+](=O)[O-])cc2)cc1 | – | inconclusive: 13 µM [activator, partial curve]
C=CCNC(=O)c1onc(CSc2ccc(F)cc2)c1C(=O)NCCOC | – | inconclusive: 0.0052 µM [falling, full curve, poor fit]
O=C(COC(=O)c1ccc(Br)o1)NC1CCCCC1 | inconclusive: -3.48% | –
O=C(NNS(=O)(=O)c1ccc(F)cc1)c1cnccn1 | inconclusive: -24.7% | –
COc1c(Cl)cccc1-c1cn2ccccc2n1 | inconclusive: 12% | –
O=C(CN1C(=O)NC(c2ccccc2)(c2ccccc2)C1=O)N1CCOCC1 | inconclusive: 3.79% | –
COc1ccc(OC)c(NC(=O)/C=C/c2ccc(S(=O)(=O)N3CCOCC3)cc2)c1 | inconclusive | –
O=C(Nc1ccc2c(c1)OCO2)C1CCN(c2ccc(S(=O)(=O)N3CCOCC3)cc2)CC1 | inconclusive: 15.4% | –
N#C/C(=C\c1ccc(Cl)cc1Cl)c1n[nH]c(Cn2cncn2)n1 | – | inconclusive: 0.0052 µM [activator, full curve, poor fit]
COc1nccnc1NS(=O)(=O)c1ccc(NCc2cc(Br)ccc2O)cc1 | – | inconclusive: 25.9 µM [activator, single point]
CSc1ccccc1NC(=O)CSCc1nc2sc(C)c(C)c2c(=O)[nH]1 | inconclusive | –
Cc1nn2c([nH]c(=O)c3ccccc32)c1C=O | inconclusive: -62% | –
CC(=O)N(Cc1ccccc1)c1ccc(C(=O)O)cc1 | – | inconclusive: 0.58 µM [falling, full curve, poor fit]
Cc1ccc(/C=C(\C#N)C(=O)Nc2ccccn2)o1 | – | inconclusive: 6.51 µM [falling, single point]

Entries of single compounds, looked up by structure. Values in the order: lipid storage change, negative = inhibition | Potency
O=C(Nc1ccc2c(c1)OCO2)C1CCN(c2ccc(S(=O)(=O)N3CCOCC3)cc2)CC1 is listed with inconclusive: 15.4% | –
O=C(NNS(=O)(=O)c1ccc(F)cc1)c1cnccn1 is listed with inconclusive: -24.7% | –
N#C/C(=C\c1ccc(Cl)cc1Cl)c1n[nH]c(Cn2cncn2)n1 is listed with – | inconclusive: 0.0052 µM [activator, full curve, poor fit]
CSc1ccccc1NC(=O)CSCc1nc2sc(C)c(C)c2c(=O)[nH]1 is listed with inconclusive | –
